Assay [1] concerns the target OxsR C24A with a C-terminal StrepII tag (Haloferax volcanii) (UniProt D4GY41). In words: reducing SDS-PAGE (intersubunit disulfide bond assay); as the non-reducing assay, but incubated with DTT (10, 100, 200 mM; 200 mM found optimal) for 25 min on ice before SDS-loading buffer, boiling and 16% SDS-PAGE; both purified.
For assay [2] the target is unchanged. Briefly: non-reducing SDS-PAGE (intersubunit disulfide bond assay); purified StrepII-tagged protein dialysed overnight in 100 mM Tris-Cl pH 7.5, 2 M NaCl; no reducing reagent; diluted 1:1 in SDS-loading buffer, boiled 10 min, 16% SDS-PAGE, Coomassie stain; shows only covalently (disulfide) linked subunits; both purified.
Assay [3] deals with OxsR (HVO_2970) wild type with a C-terminal StrepII tag (Haloferax volcanii) (UniProt D4GY41). Briefly: condition: only with the reducing reagent DTT (200 mM found optimal); reducing SDS-PAGE (intersubunit disulfide bond assay); as the non-reducing assay, but incubated with DTT (10, 100, 200 mM; 200 mM found optimal) for 25 min on ice before SDS-loading buffer, boiling and 16% SDS-PAGE; both purified.

Results are given in words; binding and its absence hold for the method and conditions named. Sequences can lack the tags named with a protein.

B1: OxsR C24A with a C-terminal StrepII tag (protein, UniProt D4GY41 1-123)
chain: MADAPDMGELMETEDPNFGQVLAAVFGIQSHESRTYLALLDNPGSTVAELAEVLDRDRSNVNRSLTTLLDKGLTERKRRLLDPGGYVYQYTATPLPEAKEMMHAALDEWAEDVHARIDAFGES
Consider B1, for which the binding entry was “no binding (tested: with DTT (200 mM found optimal))” in assay [1] and “no binding” in assay [2].

B2: OxsR (HVO_2970) wild type with a C-terminal StrepII tag (natural protein, Haloferax volcanii, UniProt D4GY41 1-123, looked up)
chain: MADAPDMGELMETEDPNFGQVLACVFGIQSHESRTYLALLDNPGSTVAELAEVLDRDRSNVNRSLTTLLDKGLTERKRRLLDPGGYVYQYTATPLPEAKEMMHAALDEWAEDVHARIDAFGES
notes: 123 aa, 14 kDa; UniProtKB D4GY41; also called OxsR-StrepII; OxsR wt; source: H. volcanii SH125 (H26 ΔoxsR) carrying pJAM4019, purified (Strep-Tactin Superflow Plus resin, 2 M NaCl buffers); not shown: StrepII, C-terminal, kept
B2: the binding entry in assay [3] is recorded as “no binding”.

The values are drawn from paper PMC9426492, “TrmB Family Transcription Factor as a Thiol-Based Regulator of Oxidative Stress Response” (mBio, 2022).
